Drawing on paper PMC8452638, this text covers binding for 1 molecule.

The test deals with RIP-1 with C-terminal 3xFLAG tag (nematode). The test is described as follows: co-purification on anti-FLAG affinity gel; RFS-1/RIP-1 expressed in budding yeast; cleared lysate applied to anti-FLAG affinity gel, beads extensively washed, eluted with 3xFLAG peptide.

Results are given in words; binding and its absence hold for the method and conditions named. In cells and extracts the contact can be indirect. Binding can be weak; no strength is given.

B1: RFS-1 (protein, UniProt P34348 1-245)
chain: MDPSENVFKYETAYDLLVRLGAERLFLRTCLSILDPVLELHPGKCYEIDGDLGVGKTQICYSFAAKFLQTKKTAKMGWIGATPLRTDHLLLHIEHFGNQTNEDILDRIVCKRVEKIAELQDSLTRFLDTINLQLVIVENIDAILHDTVYHKEMGRSMQSDVVERIRKLTKLEITVILTNHITHWRGYPAPALGAFWSSQINNRFFIEKRNDDSDIRIVSAMKGEQDDGMNRIEFKIGDRGLKAVE
As to B1, the binding entry is recorded as “binds”.
